Record: PubChem BioAssay AID504764 (Drosophila RNAi Screening Center, 2011)

Aim: 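Knock-downs that raise or lower a Notch target reporter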 (primary screen)
System: Drosophila Kc167 cells
Reagents: long dsRNA against Drosophila genes
Timing: about 5 days (4 days dsRNA, then 24 h after transfection)
Conditions: transfection of constitutively active membrane-tethered Notch lacking the extracellular domain, read 24 h later
Measured: 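Firefly luciferase from an E(spl)m3 reporter with active Notch, plus control-promoter and uninduced reporter wells for normalisation; unnormalised counts, duplicate wells a and b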
Direction: induced reporter light, run 1, well a and induced reporter light, run 1, well b: higher = more light from the Notch target reporter with active Notch; control promoter light, run 1, well a and control promoter light, run 1, well b: higher = more light from the viral control promoter (cell number, transfection, viability); uninduced reporter light, run 1, well a: higher = more light from the Notch target reporter without active Notch
Call rule: 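Wells with low control signal or poorly matching duplicates excluded; duplicates averaged; per source plate, z beyond ±2 for induced/control log2 ratio or beyond ±1.8 for induced/uninduced marks a hit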
Meaning of the calls: active = modifier hit (raised or lowered Notch signal); inactive = not a hit
In all, the deposit lists about 22,000 reagents; below is a random part of those that have a named target and a result. In the full data, 403 (1.9%) got an active call. 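Unnormalised raw counts per well; ratio z-scores behind the hit calls and whether each hit raises or lowers signal are not deposited.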 Names joined by + are all predicted targets of the reagent. Not stated in the record: the amount of reagent.

gene | DRSC id | induced reporter light, run 1, well a | induced reporter light, run 1, well b | control promoter light, run 1, well a | control promoter light, run 1, well b | uninduced reporter light, run 1, well a | outcome
Gem4b + Gem4c | DRSC17294 | 62195 | 75345 | 66850 | 70935 | 5570 | inactive
CG13065 | DRSC09948 | 1.73e5 | 1.79e5 | 2.02e5 | 2.38e5 | 9175 | inactive
CG8671 | DRSC03102 | 70690 | 38020 | 44970 | 50260 | 2780 | inactive
CG8671 | DRSC03103 | 1.03e5 | 60735 | 67810 | 86120 | 4585 | inactive
Pkc53E (Protein C kinase 53E) | DRSC05636 | 83605 | 99035 | 95025 | 83685 | 6265 | inactive
Pkc53E (Protein C kinase 53E) | DRSC07510 | 1.17e5 | 1.06e5 | 2.16e5 | 2.38e5 | 9200 | inactive
br (broad) | DRSC17691 | 57340 | 67815 | 74545 | 82035 | 5000 | inactive
br (broad) | DRSC17789 | 1.36e5 | 1.10e5 | 1.69e5 | 2.20e5 | 8800 | inactive
br (broad) | DRSC18743 | 37420 | 40455 | 39735 | 55670 | 5055 | inactive
br (broad) | DRSC18744 | 55510 | 56750 | 52410 | 44695 | 8788 | inactive
Ulp1 | DRSC19339 | 84905 | 75650 | 63555 | 42355 | 5985 | inactive
CG2187 | DRSC15425 | 1.38e5 | 1.19e5 | 1.91e5 | 1.94e5 | 9545 | inactive
MED30 (Mediator complex subunit 30) | DRSC08516 | 31620 | 36265 | 62340 | 60820 | 8040 | inactive
mRpL10 (mitochondrial ribosomal protein L10) | DRSC00312 | 1.18e5 | 1.80e5 | 2.19e5 | 2.45e5 | 9535 | active
cher (cheerio) | DRSC16924 | 2.67e5 | 2.25e5 | 2.53e5 | 3.20e5 | 19995 | inactive
Rpn13R (Regulatory particle non-ATPase 13-related) | DRSC18404 | 1.27e5 | 1.22e5 | 2.17e5 | 2.47e5 | 10970 | inactive
CG17129 | DRSC08508 | 93945 | 1.05e5 | 1.77e5 | 2.08e5 | 7530 | inactive
Ibf1 (Insulator binding factor 1) | DRSC16419 | 65730 | 54020 | 45620 | 49330 | 2660 | inactive
CG32655 | DRSC18925 | 61150 | 46555 | 65415 | 63570 | 4375 | inactive
S6kII (Ribosomal protein S6 kinase II) | DRSC20645 | 1.16e5 | 1.23e5 | 1.14e5 | 71445 | 8655 | inactive
AP-2mu (Adaptor Protein complex 2, mu subunit) | DRSC14090 | 1.50e5 | 1.63e5 | 1.92e5 | 2.31e5 | 11880 | inactive
His3.3B (Histone H3.3B) | DRSC17773 | 76115 | 82605 | 82820 | 1.02e5 | 5225 | inactive
His3.3B (Histone H3.3B) | DRSC18673 | 12260 | 11730 | 27655 | 38535 | 3050 | active
eIF3k (eukaryotic translation initiation factor 3 subunit k) | DRSC04056 | 2.27e5 | 2.41e5 | 1.51e5 | 1.70e5 | 19945 | inactive
CG12923 | DRSC06237 | 1.93e5 | 2.06e5 | 2.67e5 | 2.60e5 | 19755 | inactive
CG9240 | DRSC20177 | 60780 | 76590 | 96005 | 48595 | 8480 | inactive
mRpL15 (mitochondrial ribosomal protein L15) | DRSC11771 | 84140 | 84135 | 61925 | 66895 | 7615 | inactive
Mal-B1 (Maltase B1) | DRSC02416 | 1.89e5 | 1.69e5 | 1.29e5 | 1.57e5 | 22605 | inactive
mtTFB1 + Ccdc56 | DRSC10809 | 1.21e5 | 1.06e5 | 59645 | 38200 | 9265 | inactive
Enoph (Enolase-phosphatase) | DRSC12201 | 53055 | 61080 | 62190 | 59705 | 2900 | inactive
CG4476 | DRSC10424 | 1.12e5 | 1.17e5 | 1.33e5 | 1.08e5 | 7940 | inactive
mRpS16 (mitochondrial ribosomal protein S16) | DRSC07152 | 80625 | 88445 | 1.06e5 | 1.00e5 | 9615 | inactive
CG12081 | DRSC17802 | 1.69e5 | 1.86e5 | 2.02e5 | 1.86e5 | 13460 | inactive
Epp (Ecdysteroid phosphate phosphatase) | DRSC14607 | 1.57e5 | 1.69e5 | 2.17e5 | 2.14e5 | 15188 | inactive
CG1607 | DRSC15130 | 1.42e5 | 1.80e5 | 2.28e5 | 2.38e5 | 13620 | inactive
Nca (Neurocalcin) | DRSC11233 | 41630 | 33375 | 38190 | 32725 | 3300 | inactive
Zmynd10 (Zinc finger MYND-type containing 10) | DRSC09826 | 1.31e5 | 1.30e5 | 1.88e5 | 1.55e5 | 7665 | inactive
MCU (Mitochondrial calcium uniporter) | DRSC10339 | 2.23e5 | 1.58e5 | 2.50e5 | 1.62e5 | 12428 | inactive
ACXD (Adenylyl cyclase X D) | DRSC07843 | 82125 | 78200 | 1.22e5 | 1.30e5 | 6620 | inactive
CG8677 | DRSC03107 | 1.35e5 | 1.32e5 | 1.15e5 | 1.49e5 | 10255 | inactive
asp (abnormal spindle) | DRSC16903 | 99590 | 1.22e5 | 1.84e5 | 2.02e5 | 10210 | inactive
galene | DRSC08640 | 1.40e5 | 1.48e5 | 2.00e5 | 2.06e5 | 9545 | inactive
galene | DRSC08641 | 1.03e5 | 85405 | 1.78e5 | 1.48e5 | 6080 | inactive
CG3552 | DRSC10370 | 1.43e5 | 1.18e5 | 2.41e5 | 1.30e5 | 8280 | inactive
CG13064 | DRSC09947 | 1.65e5 | 96760 | 1.25e5 | 1.24e5 | 10585 | inactive
CG4390 | DRSC15572 | 1.65e5 | 1.65e5 | 1.56e5 | 1.80e5 | 14760 | inactive
CG9485 | DRSC04557 | 71835 | 89175 | 61035 | 67860 | 6380 | inactive
bib (big brain) | DRSC03496 | 2.58e5 | 2.10e5 | 1.96e5 | 1.86e5 | 18740 | inactive
CG34278 | DRSC13208 | 82020 | 1.01e5 | 1.26e5 | 1.55e5 | 7392 | inactive
RpL5 (Ribosomal protein L5) | DRSC03801 | 4070 | 3465 | 5240 | 3880 | 150 | inactive

Active calls, among the entries above:
gene | DRSC id | induced reporter light, run 1, well a | induced reporter light, run 1, well b | control promoter light, run 1, well a | control promoter light, run 1, well b | uninduced reporter light, run 1, well a | outcome
mRpL10 (mitochondrial ribosomal protein L10) | DRSC00312 | 1.18e5 | 1.80e5 | 2.19e5 | 2.45e5 | 9535 | active
His3.3B (Histone H3.3B) | DRSC18673 | 12260 | 11730 | 27655 | 38535 | 3050 | active
